Reference: the supplement of paper PMC11348887
Structures can show the parent of a compound that is named as a salt. Some of the results follow. Small differences around the control level are noise.

Experiments:
Conditions in all cases: 5 µM; treatment: days 7-14 after plating, readout day 21
[1] = tested on: hPSC-derived cortical neurons (WA09); experiment: nucleus area z-score vs screen plate; higher = larger nuclei (more mature)
[2] = tested on: hPSC-derived cortical neurons (WA09); experiment: total neurite length per nucleus (MAP2) z-score; higher = more neurite growth
[3] = tested on: hPSC-derived cortical neurons (WA09); experiment: nucleus roundness z-score vs screen plate; higher = rounder nuclei (more mature)
[4] = tested on: hPSC-derived cortical neurons (WA09); experiment: KCl-induced FOS+/EGR-1+ double-positive nuclei fraction z-score (KCl minus unstimulated); higher = stronger activity-induced IEG response

Compound | nucleus area z-score [1] | total neurite length per nucleus (z-score) [2] | nucleus roundness z-score [3] | KCl-induced FOS+/EGR-1+ double-positive nuclei fraction z-score [4]
FC(F)(F)c1ccc(/C=C/c2nc(COc3ccc(CCCCn4ccnn4)cc3)co2)cc1 [Mubritinib (TAK 165)] | -0.373 | -0.118 | 0.207 | -1.35
CC(NC(=O)C(Cc1ccccc1)NC(=O)OCc1ccccc1)C(=O)CF (stereo unspecified) | 0.59 | 0.305 | -1.76 | -0.554
CCN(CC)C(=O)C1(c2ccccc2)CC1CN (stereo unspecified) [Milnacipran HCl] | 0.791 | 0.0604 | 0.58 | 1.41
CCN1CCN(C(=O)N[C@@H](C(=O)N[C@@H]2C(=O)N3[C@@H]2SC(C)(C)[C@@H]3C(=O)O)c2ccccc2)C(=O)C1=O [Piperacillin Sodium] | -0.0681 | -0.251 | 0.0332 | -0.0463
